The whole screen tested about 220,000 compounds, of which about 2,400 (1.1%) were called active. This list was built around the results that the source calls inconclusive (neither active nor inactive); the mix of calls is not that of the screen. Calls come from the whole dose curve; as a rule, active = well fitted inhibition curve with a large enough effect; inconclusive = small, poorly fitted or top-dose-only effect, or effect the other way; inactive = no such curve, though single readings can be large or run the other way. Where the call is inconclusive, the potency comes from a doubtful curve fit.
Assay: qHTS Multiplex Assay to Identify Dual Action Probes in a Cell Model of Huntington: Aggregate Formation (GFP); note: nearly all actives have a fitted effect of over 60% in size
Conditions: PC12 HttQ103-GFP aggregates, Acumen cytometry, 40 h; activity change, negative = inhibition: at 46.1 µM (top of the series) unless noted
In short: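 Aggregate formation scored by laser-scanning cytometer (488 excitation, 500–530 emission) in lysed PC12 cells expressing Q103-GFP after 100 nM tebufenozide induction; library tested in dose series, with ATPLite reagent added in the multiplex.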
% is set by controls: 0 for no effect and ±100 for the full control effect; potency is the fitted concentration of half-maximal effect.

| Structure (SMILES) | Potency | activity change, negative = inhibition |
| --- | --- | --- |
| CC(=O)Nc1ccc(S(=O)(=O)Nc2ccc3c(c2)C(=O)OC3)cc1 | inconclusive: 7.94 µM [inhibitor, partial curve] |  |
| Cc1c(Cl)c([N+](=O)[O-])nn1CCCC(=O)Nc1sc2c(c1C(N)=O)CCC(C)C2 (stereo not drawn) | inconclusive: 5.62 µM [activator, single point] |  |
| COc1cc(/C=C2\SC(=S)N(Nc3ccccc3)C2=O)cc(OC)c1OC | inconclusive: 17.8 µM [activator, partial curve, poor fit] |  |
| O=C(/C=C/c1cccs1)Nc1nc(-c2ccccc2)cs1 | active: 35.5 µM |  |
| O=[N+]([O-])c1ccc(Sc2cccc[n+]2[O-])c2nonc12 | active: 1.12 µM |  |
| O=S(Cc1ccc(Br)cc1)Cc1nnc(SCc2ccc(Cl)cc2)n1-c1ccccc1 (stereo not drawn) | inconclusive: 8.91 µM [inhibitor, partial curve] |  |
| Cc1ncc(CO)c(/C=N/NC(=S)Nc2ccc(Cl)c(Cl)c2)c1O | inconclusive: 17.8 µM [inhibitor, single point] |  |
| CCCc1nc2c(c(=O)c3ccccc3n2C)c(=O)n1C1CCCCCC1 | inconclusive: 25.1 µM [inhibitor, single point] |  |
| O=C(NCC(=O)N(CCN1CCOCC1)C(C(=O)NC1CCCC1)c1cccs1)c1ccco1 (stereo not drawn) | inconclusive: 35.5 µM [activator, single point] |  |
| Cc1ccc(S(=O)(=O)Nc2ccc(Br)cc2/C=N/n2cnnc2)cc1 | active: 2.24 µM |  |
| Cc1cc(NC(=O)CCc2ccc(S(=O)(=O)N3CCOCC3)cc2)n(-c2ccccc2)n1 | inconclusive: 35.5 µM [inhibitor, single point] |  |
| CC1=NOC(=O)/C1=C\c1ccc(-c2cccc(Cl)c2)o1 | inconclusive: 35.5 µM [inhibitor, single point] |  |
| N=C(N)SCc1ccc(Cl)cc1Cl | inconclusive: 17.8 µM [inhibitor, single point] |  |
| CCOC(=O)c1sc(NC(=O)c2ccco2)nc1-c1ccccc1 |  | inactive: -13.5% |
| Cc1nc2c(-c3ccccc3)c(C)nn2c(N)c1-c1ccccc1 | inconclusive: 22.4 µM [inhibitor, single point] |  |
| CCOC(=O)N1CCN(C(=O)C2CCN(Cc3cccc(OCc4ccccc4)c3)CC2)CC1 | inconclusive: 35.5 µM [inhibitor, single point] |  |
| CCc1ccc(NC(=O)C2(c3ccccc3)CC2(Cl)Cl)cc1 (stereo not drawn) | inconclusive: 17.8 µM [inhibitor, single point] |  |
| CC(=O)Nc1ccc(S(=O)(=O)N2CCC(NC(=O)C(Cc3cccn3C)NC(C)=O)CC2)cc1 (stereo not drawn) |  | inactive: 9.76% |
| CCCc1nnc(NC(=O)c2c(O)c3c([nH]c2=O)CCCC3)s1 |  | inactive: -1.13% |
| Clc1ccc(/C=N/Nc2nc(Cl)nc3ccccc23)cc1 | inconclusive: 8.91 µM [activator, partial curve] |  |
| O=C(CCn1c(=O)oc2ccccc21)N(Cc1ccccc1)c1ccccc1 |  | inactive: -8.56% [at 9.22 µM] |
| CCCc1cc(=O)[nH]c(SCc2csc(-c3ccccc3)n2)n1 | inconclusive: 17.8 µM [inhibitor, single point] |  |
| O=C(CSc1ccccn1)N/N=C/c1ccccc1[N+](=O)[O-] |  | inactive: -12.4% |
| COc1ccc(CNC(=O)Nc2ccc(C)c(C)c2)cc1 | inconclusive: 4.47 µM [activator, full curve, poor fit] |  |
| Cc1cnc(C(=O)OCC(=O)NCc2ccc3c(c2)OCO3)cn1 | inconclusive: 35.5 µM [activator, single point] |  |

| Structure (SMILES) | Potency | activity change, negative = inhibition |
| --- | --- | --- |
| Cc1nn(C)c(C)c1CN(C)S(=O)(=O)c1ccc2ccccc2c1 | active: 7.94 µM |  |
| CCOC(=O)CSc1nc(C)cc2c1C(=O)OC2 | inconclusive: 6.31 µM [activator, partial curve, poor fit] |  |
| COC(=O)CCS(=O)(=O)c1nc(-c2ccccc2)cc(C(F)(F)F)n1 | inconclusive: 35.5 µM [activator, single point] |  |
| COc1ccc(C(=S)N2CCOCC2)cc1OS(=O)(=O)c1ccccc1[N+](=O)[O-] |  | inactive: -7.73% |
| NNC(=O)c1sccc1OCc1ccc(F)cc1 |  | inactive: 8.79% |
| O=C1NC(c2ccccc2)=C(c2nc3ccccc3s2)C(c2ccc(F)cc2)N1 (stereo not drawn) | inconclusive: 17.8 µM [inhibitor, single point] |  |
| COc1cc(/C=N/Nc2nc(-c3ccc(S(=O)(=O)N(C)C)cc3)cs2)ccc1O | inconclusive: 5.62 µM [activator, single point] |  |
| Cc1ccc(C)c(NS(=O)(=O)c2cc(C(=O)N3CCc4ccccc4C3)ccc2Cl)c1 | inconclusive: 25.1 µM [inhibitor, single point] |  |
| COc1ccccc1C1(CCNS(=O)(=O)c2ccc(C)cc2)CCOC(C(C)C)C1 (stereo not drawn) | inconclusive: 14.1 µM [inhibitor, single point] |  |
| CN(C)c1cc[n+](CC(=O)c2ccc(-c3ccccc3)cc2)cc1 | active: 15.8 µM |  |
| c1ccc(-n2nnnc2CN2CCOCC2)cc1 |  | inactive: -7.76% |
| Cc1ccccc1CN1CCN(CC2CC3C=CC2C3)CC1 (stereo not drawn) |  | inactive: -4.39% |
| CCc1cc(=O)n2[nH]c(C)c(-c3ccccc3OC)c2n1 | inconclusive: 12.6 µM [inhibitor, single point] |  |
| CCC(C)NC(=O)c1ccccc1-c1nc2ccccc2[nH]1 (stereo not drawn) | inconclusive: 14.1 µM [inhibitor, single point] |  |
| Cc1ccccc1C(=O)c1c[nH]c(C(=O)NCCCn2ccnc2)c1 | inconclusive: 35.5 µM [inhibitor, single point] |  |
| CC(C)(C)n1nnnc1C(c1cccc(C#N)c1)N1CCN2CCCC2C1 (stereo not drawn) |  | inactive: -1.38% |
| Cc1ccc(NC(=S)NNC(=O)c2cccc([N+](=O)[O-])c2)cc1Cl |  | inactive: -18.1% [at 9.22 µM] |
| COc1ccc(C)cc1NC(=O)C(=O)N1CCCC1 |  | inactive: 1.72% [at 9.22 µM] |
| c1ccc(Nc2nc(N3CCOCC3)c3ccccc3n2)cc1 | active: 12.6 µM |  |
| COc1ccc(S(=O)(=O)N(C(=O)C(C)C)c2ccc3oc(=O)sc3c2)cc1 | inconclusive: 3.16 µM [activator, partial curve] |  |
| O=C(CSc1nc(Nc2ccccc2)nc(N2CCOCC2)n1)Nc1ccc([N+](=O)[O-])cc1 | inconclusive: 12.6 µM [inhibitor, partial curve] |  |
| COc1ccc(C(O)(c2ccccc2OC)C(CN2CCOCC2)c2ccccc2)cc1 (stereo not drawn) | inconclusive: 35.5 µM [inhibitor, single point] |  |
| N#Cc1cn(Cc2cccc(Cl)c2)c2ccccc12 | inconclusive: 35.5 µM [inhibitor, single point] |  |
| Cc1n[nH]c(=S)c2nn(-c3ccccc3)c(C)c12 |  | inactive: 3.15% |
| CCCCc1ccc(NC2=NCC(=O)N2CCc2ccccc2)cc1 |  | inactive: -15.4% [at 9.22 µM] |

| Structure (SMILES) | Potency | activity change, negative = inhibition |
| --- | --- | --- |
| O=C(c1ccc(S(=O)(=O)N2CCOCC2)cc1)N(Cc1ccco1)Cc1cccs1 | inconclusive: 10 µM [inhibitor, partial curve] |  |
| CCOC(=O)c1c(-c2ccc(OC)cc2)cn2ccccc12 | inconclusive: 11.2 µM [activator, partial curve, poor fit] |  |
| CCCOC(=O)C1=C(C)NC2=C(C(=O)C(C(=O)OC)C(C)C2)C1c1ccc(N(CC)CC)cc1 (stereo not drawn) | inconclusive: 5.62 µM [inhibitor, single point] |  |
| C(=N\Nc1nc2ccccc2s1)/c1ccccn1 |  | inactive: -44.7% [at 9.22 µM] |
| O=C(CSC1=NCCS1)NC(NC(=O)CSC1=NCCS1)c1ccccc1 |  | inactive: -7.79% |
| NC(=O)c1cc(-c2ccccc2)nc(Oc2ccccc2)n1 |  | inactive: -6.27% |
| Cc1ccc(-c2csc3ncnc(Oc4cccc5ccc(C)nc45)c23)cc1 | inconclusive: 3.16 µM [inhibitor, single point] |  |
| Cn1cc(C(=O)c2ccc(Cl)cc2)cc1-c1nc2ccccc2n1C | inconclusive: 11.2 µM [inhibitor, partial curve] |  |
| O=C1OCCC1Sc1nnc(-c2ccccc2Cl)n1Cc1ccccc1 (stereo not drawn) |  | inactive: -2.72% |
| Nn1c(=O)c2ccccc2n2c(SCc3ccccc3)nnc12 |  | inactive: -7.23% |
| CN1/C(=C\C(=O)COC(=O)Cn2nnc(-c3ccccc3)n2)C(C)(C)c2ccccc21 | active: 11.2 µM |  |
| Cc1ccc(N(CN2C(=O)c3ccccc3C2=O)C(=O)c2ccc([N+](=O)[O-])cc2[N+](=O)[O-])cc1 |  | inactive: -21.6% |
| O=C(NCc1cccs1)C1CCC(=O)N1C1CCCCC1 (stereo not drawn) |  | inactive: 4.5% |
| COCCN(CC(=O)NC1CCCCC1)C(=O)/C=C/C(=O)c1ccc(OC)cc1O | inconclusive: 3.16 µM [activator, single point] |  |
| CN(C(=O)c1ccc(-c2nn(C)c(=O)c3ccccc23)cc1)c1ccccc1 | inconclusive: 15.8 µM [inhibitor, single point] |  |
| O=[N+]([O-])c1cc(S(=O)(=O)Nc2ccccc2)ccc1-n1nnc2ccccc21 | inconclusive: 20 µM [inhibitor, partial curve] |  |
| CCn1c2ccccc2c2cc(NC(=O)CSc3nnc(-c4ccccc4)o3)ccc21 |  | inactive: -14.5% |
| O=C(Nc1nc(-c2ccccc2)cs1)C1CCCCN1S(=O)(=O)c1ccc(Cl)cc1 (stereo not drawn) | inconclusive: 35.5 µM [inhibitor, single point] |  |
| CCN1C(=O)C(C(=O)c2ccccc2)SC1=S (stereo not drawn) |  | inactive: -9.2% |
| CCCC[n+]1c(-c2ccc(Cl)cc2Cl)csc1Nc1ccccc1 |  | inactive: -9.33% |
| CCOC(=O)c1cnn2c(N)c(C#N)cnc12 |  | inactive: 8.01% [at 9.22 µM] |
| Cc1nnc(N(Cc2ccccc2)C(=O)c2cnccn2)s1 |  | inactive: -5.23% |
| O=S(=O)(c1ccccc1)N1CCC(O)(CSc2ccc(Cl)cc2)CC1 | inconclusive: 7.94 µM [inhibitor, partial curve] |  |

For convenience, part of the list above.

| Structure (SMILES) | Potency | activity change, negative = inhibition |
| --- | --- | --- |
| Cc1ccc(C)c(NS(=O)(=O)c2cc(C(=O)N3CCc4ccccc4C3)ccc2Cl)c1 | inconclusive: 25.1 µM [inhibitor, single point] |  |
| COc1ccccc1C1(CCNS(=O)(=O)c2ccc(C)cc2)CCOC(C(C)C)C1 (stereo not drawn) | inconclusive: 14.1 µM [inhibitor, single point] |  |
| CN(C)c1cc[n+](CC(=O)c2ccc(-c3ccccc3)cc2)cc1 | active: 15.8 µM |  |
